Results taken from PubChem BioAssay AID1487 (National Center for Advancing Translational Sciences (NCATS), 2009).
Several values for one entry are separate records, joined by “and”; a condition that tells them apart may be missing. Equal entries are not always repeated. The campaign covered roughly 200,000 compounds. About 25 (0.01%) were called active. Inconclusive means that the source gave no clear call. Such entries were picked first, then a sample of the others. The call rests on the fitted dose curve; in most records, active means well fitted inhibition curve with a large enough effect in the signal ratio, with a control signal flat (not every such curve was filed as active); inconclusive means small, poorly fitted or top-dose-only effect, or effect the other way, or a change in a side signal; inactive means flat fitted curve, though single readings scatter; the % refers to the signal ratio. A potency beside an inconclusive call is a rough fit, not a confirmed value.
On the % scale 0 is the no-effect control and ±100 the full control effect; potency means the concentration at half of the fitted maximal effect.

Experiment: qHTS Assay for Modulators of Lamin A Splicing
Conditions: HeLa LMNA splicing GFP/RFP minigene ratio, 48 h; ratio change, negative = inhibition: at 46.1 µM (top of the series) unless noted
In short: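 S3 HeLa cells stably expressing lamin A-EGFP splicing minigene plus DsRed2, 600 cells/well, 48 h compound exposure at 37C. Laser-scanning cytometry; analysed as GFP (500-530 nm)/RFP (575-640 nm) total intensity ratio; 0.5% DMSO vehicle.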
For `CCOc1cc(/C=C2/C(=O)N(c3ccccc3)N=C2C)ccc1OC(=O)c1cccs1`, the “ratio change, negative = inhibition” value was inactive: 2.12%.
With `Cc1cc2ccccn2c1C(=O)c1cc([N+](=O)[O-])cc([N+](=O)[O-])c1` the “ratio change, negative = inhibition” value was inactive: -6.57% [at 46 µM].
With `O=C(Nc1ccccc1C(=O)OCc1cc(=O)n2c3c(sc2n1)CCCC3)c1cccc(Cl)c1` the “ratio change, negative = inhibition” value was inactive: -8.06% [at 46 µM].
For `Cc1ccc2nc(SCC(=O)Nc3ccccc3N3CCOCC3)c(C#N)cc2c1`, the “ratio change, negative = inhibition” value was inactive: -4.89%.
In the case of `COC(=O)c1c(-c2ccc(Cl)cc2)noc1N1CCN(c2cccc(C(F)(F)F)c2)CC1`, the Potency is reported as inconclusive: 4.47 µM [cytotoxic, partial curve].
For `CNc1cc(CSC)nc(SCc2ccc(Cl)cc2Cl)n1`, the ratio change, negative = inhibition was inconclusive: -31.4%.
For `CCCn1ccc2c(OCC(=O)NCc3ccccc3Cl)cccc2c1=O`, the “ratio change, negative = inhibition” value was inactive: 5.57% [at 46 µM].
For `O=C(/C=C/c1ccccc1)CC(O)(c1ccccc1)C(F)(F)F` (stereo not given), the Potency was inconclusive: 35.5 µM [cytotoxic, single point].
For `Cc1cccc(N=Nc2c(O)[nH]c3ccc(F)cc23)c1`, the ratio change, negative = inhibition was inconclusive: 46% [at 46 µM].
For `O=C(COC(=O)CCc1nc2ccccc2c(=O)[nH]1)NC1CCS(=O)(=O)C1` (stereo not given), the ratio change, negative = inhibition was inconclusive: -4.3% [at 46 µM].
In the case of `Cc1cnc(CNc2ncncc2-c2ccoc2)cn1`, the “ratio change, negative = inhibition” value is reported as inactive: -1.43%.
With `COC(=O)c1ccc(CSc2nc3c(cnn3-c3ccc(Cl)cc3)c(=O)[nH]2)o1` the ratio change, negative = inhibition was inconclusive: -7.13%.
For `CCOc1cc(C2Nc3cccc4cccc(c34)N2)ccc1O`, the “ratio change, negative = inhibition” value was inactive: 18.3%.
For `Cc1ccc(NC(=O)CN2C(=O)C3(SCC(=O)N3c3cccc(Cl)c3)c3ccccc32)cc1C` (stereo not given), the ratio change, negative = inhibition was inconclusive: -42.5% [at 46 µM].
With `CCCN1C[C@H](CSC)C[C@@H]2c3cccc4[nH]cc(c34)C[C@H]21` the ratio change, negative = inhibition was inconclusive: -15.5% and inconclusive: -4.02%.
In the case of `O=C(NCCCN1CCN(c2ccccc2F)CC1)C1CCN(S(=O)(=O)N2CCOCC2)CC1`, the ratio change, negative = inhibition is reported as inconclusive: -14.3%.
In the case of `CCc1c(C#N)c(SCCC(=O)Nc2ccc(C)cc2)nc2c1C(=O)CC(C)(C)C2`, the ratio change, negative = inhibition is reported as inconclusive: -14.7%.
For `O=C(Cn1nc(CNc2ccc(Cl)cc2)[n+]2c1CCCCC2)c1ccc(Cl)cc1`, the Potency was inconclusive: 35.5 µM [falling, single point].
With `O=[N+]([O-])/C=C/c1cn(Cc2ccc(Cl)cc2)c2ccccc12` the ratio change, negative = inhibition was inconclusive: 98.6%.
In the case of `COc1ccc(CCNC(=O)c2ccc(Cl)cc2)cc1OC`, the ratio change, negative = inhibition is reported as inconclusive: 13.5% [at 46 µM].
For `CCOC(=O)C1=C(O)C(=O)N(Cc2cccnc2)C1c1ccc(OC)cc1` (stereo not given), the ratio change, negative = inhibition was inconclusive: -14.8% [at 46 µM].
In the case of `CN(CCOc1cccc(C(F)(F)F)c1)Cc1ccccc1`, the ratio change, negative = inhibition is reported as inconclusive: 3.91% [at 46 µM].
With `COc1cccc(NC(=O)CC(C)S(=O)(=O)c2ccc3c(c2)NC(=O)CO3)c1` (stereo not given) the “ratio change, negative = inhibition” value was inactive: 1.92% [at 46 µM].
In the case of `CCOC(=O)N1CCN(C(=O)c2ccc(N(C)S(C)(=O)=O)cc2)CC1`, the “ratio change, negative = inhibition” value is reported as inactive: 1.48%.
With `CN(C)c1ccc(C2NCC(CCl)O2)cc1` (stereo not given) the ratio change, negative = inhibition was inactive: 0.0925% [at 0.0737 µM].
For `CCN1C2=C(C(=O)CCC2)C(c2ccc(O)c(Br)c2)C2=C1CCCC2=O`, the “ratio change, negative = inhibition” value was inactive: 7.41%.
With `O=C(NC(c1ccc(Cl)cc1)c1c(O)ccc2ccccc12)c1ccccc1` (stereo not given) the Potency was inconclusive: 22.4 µM [inhibitor, single point].
In the case of `COc1ccc(NS(=O)(=O)c2ccc(Oc3cccc(C(=O)O)c3)cc2)cc1`, the “ratio change, negative = inhibition” value is reported as inactive: 10.2% [at 46 µM].
With `COCCCNC(=O)c1ccc2c(=O)n(Cc3ccc(OC)cc3)c(=O)[nH]c2c1` the ratio change, negative = inhibition was inconclusive: 34.1% [at 46 µM].
With `COc1cc([N+](=O)[O-])ccc1NC(=S)NC(=O)CC(C)(C)C` the ratio change, negative = inhibition was inconclusive: 18.8% [at 46 µM].
With `CC(C(=O)NCC1CCCCC1)N1CCN(S(=O)(=O)c2ccccc2F)CC1` (stereo not given) the “ratio change, negative = inhibition” value was inactive: -10.1% [at 46 µM].
With `CCCCN1C(=O)/C(=C/C=C2/CC(C)(C)CN2C)SC1=S` the ratio change, negative = inhibition was inconclusive: -10.1%.
For `O=C(Nc1ccc(OC(F)F)c(Cl)c1)Nc1ccc2c(c1)OCO2`, the Potency was inconclusive: 14.1 µM [falling, single point].
For `Cc1ccc(S(=O)(=O)C(CNC(=O)c2ccccc2F)c2cccs2)cc1` (stereo not given), the ratio change, negative = inhibition was inconclusive: -0.701% [at 46 µM].
With `O=C(CSc1nnc(CNC(=O)c2cccs2)o1)Nc1ccc2c(c1)OCO2` the “ratio change, negative = inhibition” value was inactive: 1.68%.
For `COc1ccc(-n2cnc3cc([N+](=O)[O-])ccc32)cc1`, the “ratio change, negative = inhibition” value was inactive: 11.5% [at 46 µM].
With `CCOc1ccc(S(=O)(=O)N/N=C(\C)C2CCCCC2)cc1` the “ratio change, negative = inhibition” value was inactive: -2.41%.
In the case of `Oc1ccccc1CN1CCC(C(O)(c2ccccc2)c2ccccc2)CC1`, the ratio change, negative = inhibition is reported as inconclusive: -2.4%.
In the case of `COc1cccc(C(=O)/C=C2\Sc3ccccc3N2C)c1`, the ratio change, negative = inhibition is reported as inconclusive: -21.8% [at 46 µM].
For `CCOCCCn1c(SCC(=O)Nc2ccc(C)cc2)nc2ccccc2c1=O`, the “ratio change, negative = inhibition” value was inactive: 4.13% [at 46 µM].
